Measurements: the RepoRT retention time repository

Assay: HILIC, Waters ACQUITY UPLC BEH Amide, 100 × 2.1 mm, 1.7 µm; A: water + 0.125% formic acid + 10 mM ammonium formate; B: 5% water + 95% acetonitrile + 0.125% formic acid + 10 mM ammonium formate; gradient (min/%B) 0/100 2/100 7.7/70 9.5/40 10.25/30 12.75/100 17/100
Details: stereoisomer not certain

O=C(O)C(=O)Cc1ccc(O)cc1 [4-Hydroxyphenylpyruvic acid]
LC retention time: 1.22 min
